Assay results published in the supplement of paper PMC12823440, “Inhibitors supercharge kinase turnover through native proteolytic circuits” (Nature, 2025).
The other results are listed elsewhere or left out. Hit calls seldom repeat between salt and free forms of one compound.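 Kinases, fused to nanoluciferase, were expressed in K562 cells; luminescence was measured every 4 h from 2 to 18 h as percent of control (DMSO = 100%, positive control = 0%). A time point is decreased if signal falls significantly (2 sigma). Hits were called by the authors by a rule that is not shown; the count of time points alone does not decide it.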

Sequences of proteins named here, by UniProt entry; tags and fusion partners are left off. A change or cut given only in a name is not applied to a line headed by its entry.
UniProt P53667: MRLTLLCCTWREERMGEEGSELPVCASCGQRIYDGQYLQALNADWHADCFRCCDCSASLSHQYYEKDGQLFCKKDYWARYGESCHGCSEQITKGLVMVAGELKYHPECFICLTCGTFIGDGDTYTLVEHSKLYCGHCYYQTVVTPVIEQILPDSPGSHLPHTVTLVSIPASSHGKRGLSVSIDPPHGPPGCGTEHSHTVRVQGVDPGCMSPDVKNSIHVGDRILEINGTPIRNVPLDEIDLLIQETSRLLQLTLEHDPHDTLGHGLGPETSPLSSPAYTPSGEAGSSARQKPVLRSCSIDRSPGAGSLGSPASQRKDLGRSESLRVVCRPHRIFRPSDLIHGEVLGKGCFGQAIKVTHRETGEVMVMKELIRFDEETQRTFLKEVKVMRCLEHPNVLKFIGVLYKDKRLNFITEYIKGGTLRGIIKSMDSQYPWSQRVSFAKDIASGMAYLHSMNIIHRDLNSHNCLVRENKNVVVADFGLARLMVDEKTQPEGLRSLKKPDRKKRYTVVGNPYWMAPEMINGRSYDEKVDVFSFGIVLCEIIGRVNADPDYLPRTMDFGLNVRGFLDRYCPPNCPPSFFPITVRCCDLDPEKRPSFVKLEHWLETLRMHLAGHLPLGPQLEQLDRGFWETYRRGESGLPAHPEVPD

Biological target: LIMK1 (UniProt P53667)
Assay: kinase-Nluc reporter destabilization hit call (1 = scored as downregulated) (binary); higher = compound decreases kinase abundance
Settings: K562; 2-18 h

kinase-Nluc reporter destabilization hit call, inactive:
O=C(O)c1cc(N(Cc2ccccc2O)Cc2ccccc2O)ccc1O [Lavendustin B] (10 µM) 0
Cc1cnc(NC2CCOCC2)nc1-n1cnc(C(=O)N[C@H](CN)c2cc(F)cc(Cl)c2)c1 (10 µM) 0
Cn1ncc2cc(-c3cnc(N)c(Cl)c3N3CCC4(CCNC4=O)CC3)ccc21 (10 µM) 0
CC(C)c1cccc(C(C)C)c1N1C(=O)c2ccc(N)cc2C1=O (2.5 µM) 0
CC[C@@](C)(Nc1ccnc(-c2c[nH]c3ncccc23)n1)C(=O)NCC(F)(F)F [Decernotinib] (10 µM) 0
NC1=NCCN1CC(=O)O [Cyclocreatine] (10 µM) 0
Nc1c(C(=O)NCc2ccc(C(=O)NCCCC3CCCCC3)cc2)cnn1-c1ccccc1 (2.5 µM) 0
C[C@H](Nc1ncnc2nc[nH]c12)c1cc2cccc(Cl)c2c(=O)n1-c1ccccc1 [Duvelisib] (10 µM) 0
Cc1cc(Nc2nc(CC3(C(=O)O)CCN(C(=O)c4cccc(Cl)c4Cl)CC3)ccc2F)n[nH]1 (10 µM) 0
C[C@@H]1O[C@@H](O[C@@H]2[C@@H](O)[C@H](OCCc3ccc(O)c(O)c3)O[C@H](CO)[C@H]2OC(=O)/C=C/c2ccc(O)c(O)c2)[C@H](O)[C@H](O)[C@H]1O [Verbascoside] (10 µM) 0
O=C1/C(=C\c2ccc(Cl)cc2)C=C(c2ccccc2)N1c1ccc(O)cc1 (2.5 µM) 0
Nc1nccc(Oc2ccc(NC(=O)c3c[nH]cc(-c4ccc(F)cc4)c3=O)cc2F)c1Cl (10 µM) 0
COc1ccc(-c2c(C)nn3c(NCCN4CCOCC4)cc(C)nc23)cc1OC (10 µM) 0
O=C1NC(=O)C(c2cnc3ccccn23)=C1c1cn2c3c(cc(F)cc13)CNCC2 [GSK-3 inhibitor 1] (2.5 µM) 0
CCCCCCCC/C=C\CCCCCCCCCCCC(=O)O [Erucic acid] (10 µM) 0
O=C(Nc1nc2ccccc2[nH]1)c1cccc([N+](=O)[O-])c1 [IRAK-4 protein kinase inhibitor 2] (10 µM) 0
Cc1cccc(-c2[nH]c(C(C)(C)C)nc2-c2ccc3nccnc3c2)n1 (10 µM) 0
C[C@@H]1CC(=O)c2c(ccc3c2C(=O)c2cccc(O)c2C3=O)C1 [Ochromycinone] (10 µM) 0
CN1C(=O)[C@@H](NC(=O)c2n[nH]c(Cc3ccccc3)n2)COc2ccccc21 (10 µM) 0
CCc1cccc(CC)c1NC(=O)N1Cc2[nH]nc(NC(=O)c3ccc(N4CCN(C)CC4)cc3)c2C1 (2.5 µM) 0
COc1ccc(N=Nc2c(N)n[nH]c2N)cc1 (10 µM) 0
Cc1ccc(NC(=O)c2ccnc(C(F)(F)F)c2)cc1-c1cc(OCCO)nc(N2CCOCC2)c1 (10 µM) 0
CC(C)(O)[C@H]1CC[C@H](Nc2ccc3ncc(-c4cccc(C(F)(F)F)c4)n3n2)CC1 (10 µM) 0
CCn1c(=O)c(-c2cc[nH]n2)cc2c(C)nc(N)nc21 [Voxtalisib] (10 µM) 0
C[C@H](NC(=O)[C@H]1NCC[C@@H]1O)c1ccc(-c2noc(CCC3CCCC3)n2)cc1 (10 µM) 0
O=C1O[C@H]([C@@H](O)CO)C(O)=C1OP(=O)(O)O [2-Phospho-L-ascorbic acid (trisodium)] (10 µM) 0
Cn1cnc([N+](=O)[O-])c1C[N+](C)(C)C/C=C/C(=O)Nc1cc2c(Nc3ccc(Cl)c(Br)c3)ncnc2cn1 [Tarloxotinib (bromide)] (10 µM) 0
CC1(C)Cc2c(sc(NC(=S)NC(=O)c3ccccc3)c2C(=O)O)CO1 (10 µM) 0
CCCCCCCCCCCCCCCCOP(=O)([O-])OCC[N+](C)(C)C [Miltefosine] (10 µM) 0
N#CC(c1ccnc(OCc2ccc(CN3CCOCC3)cc2)n1)c1nc2ccccc2s1 (stereo not drawn) [Bentamapimod] (2.5 µM) 0
Cc1cnc(-c2ccc(-c3ccc(NC(=O)Nc4cccc(C(F)(F)F)c4)cc3F)c3c2C(=O)NC3)[nH]1 (10 µM) 0
CC(C)=CC(=O)O[C@H]1Cc2cc3ccc(=O)oc3cc2OC1(C)C [Decursin] (10 µM) 0
O=C(N[C@@H](C1CC1)C(F)(F)F)c1cc(-c2cnn3cc(-c4ccc(F)cc4)cnc23)cs1 (10 µM) 0
CNc1cc(Nc2cccn(-c3ccccn3)c2=O)nn2c(C(=O)N[C@@H]3C[C@@H]3F)cnc12 (2.5 µM) 0
CS(=O)(=O)c1ccc(-c2cnc(N)c(-c3ccc(C(F)(F)F)nc3)c2)cc1 (10 µM) 0
CN(c1ccc(NC(=O)Nc2ccc(OC(F)(F)F)cc2)cc1)c1ccnc(Nc2cccc(S(N)(=O)=O)c2)n1 (2.5 µM) 0
Cc1ccc2c(Nc3cccc(Cl)c3F)nccc2c1NC(=O)c1csc2c(N)ncnc12 [Belvarafenib] (10 µM) 0
COc1nn(C)cc1Nc1nccc(-c2c[nH]c3c(NC(=O)[C@@H](C)N4CCN(C)CC4)cccc23)n1 (10 µM) 0

Some of these compounds in order of SMILES length, rising.
kinase-Nluc reporter destabilization hit call, inactive:
CCCCCCCC/C=C\CCCCCCCCCCCC(=O)O [Erucic acid] (10 µM) 0
CN1C(=O)[C@@H](NC(=O)c2n[nH]c(Cc3ccccc3)n2)COc2ccccc21 (10 µM) 0
C[C@@H]1O[C@@H](O[C@@H]2[C@@H](O)[C@H](OCCc3ccc(O)c(O)c3)O[C@H](CO)[C@H]2OC(=O)/C=C/c2ccc(O)c(O)c2)[C@H](O)[C@H](O)[C@H]1O [Verbascoside] (10 µM) 0
